Data as given in PMC9465040.
These are yes or no findings as the source states them, for the method shown. Binding seen in cells or lysates may run through a third protein. Binding calls can cover weak binding; strength is not graded here. Where a sequence is shown, tags or fusion partners need not be part of it.

Molecular target: RrTTG1, pXY106 (nYFP) fusion (Rosa roxburghii)
Experiment: split reporter; BiFC: cYFP (pXY105) and nYFP (pXY106) fusions transiently expressed in Nicotiana benthamiana leaves via Agrobacterium EHA105 mixed 1:1; YFP fluorescence by confocal microscopy after 48 h

Row | binding | Binder
1 | binds | AtGL3, pXY105 (cYFP) fusion (protein, UniProt Q9FN69 1-637) MATGQNRTTVPENLKKHLAVSVRNIQWSYGIFWSVSASQSGVLEWGDGYYNGDIKTRKTIQASEIKADQLGLRRSEQLSELYESLSVAESSSSGVAAGSQVTRRASAAALSPEDLADTEWYYLVCMSFVFNIGEGMPGRTFANGEPIWLCNAHTADSKVFSRSLLAKSAAVKTVVCFPFLGGVVEIGTTEHITEDMNVIQCVKTSFLEAPDPYATILPARSDYHIDNVLDPQQILGDEIYAPMFSTEPFPTASPSRTTNGFDQEHEQVADDHDSFMTERITGGASQVQSWQLMDDELSNCVHQSLNSSDCVSQTFVEGAAGRVAYGARKSRVQRLGQIQEQQRNVKTLSFDPRNDDVHYQSVISTIFKTNHQLILGPQFRNCDKQSSFTRWKKSSSSSSGTATVTAPSQGMLKKIIFDVPRVHQKEKLMLDSPEARDETGNHAVLEKKRREKLNERFMTLRKIIPSINKIDKVSILDDTIEYLQELERRVQELESCRESTDTETRGTMTMKRKKPCDAGERTSANCANNETGNGKKVSVNNVGEAEPADTGFTGLTDNLRIGSFGNEVVIELRCAWREGVLLEIMDVISDLHLDSHSVQSSTGDGLLCLTVNCKHKGSKIATPGMIKEALQRVAWIC
2 | binds | AtEGL3, pXY105 (cYFP) fusion (protein, UniProt Q9CAD0 1-596) MATGENRTVPDNLKKQLAVSVRNIQWSYGIFWSVSASQPGVLEWGDGYYNGDIKTRKTIQAAEVKIDQLGLERSEQLRELYESLSLAESSASGSSQVTRRASAAALSPEDLTDTEWYYLVCMSFVFNIGEGIPGGALSNGEPIWLCNAETADSKVFTRSLLAKSASLQTVVCFPFLGGVLEIGTTEHIKEDMNVIQSVKTLFLEAPPYTTISTRSDYQEIFDPLSDDKYTPVFITEAFPTTSTSGFEQEPEDHDSFINDGGASQVQSWQFVGEEISNCIHQSLNSSDCVSQTFVGTTGRLACDPRKSRIQRLGQIQEQSNHVNMDDDVHYQGVISTIFKTTHQLILGPQFQNFDKRSSFTRWKRSSSVKTLGEKSQKMIKKILFEVPLMNKKEELLPDTPEETGNHALSEKKRREKLNERFMTLRSIIPSISKIDKVSILDDTIEYLQDLQKRVQELESCRESADTETRITMMKRKKPDDEEERASANCMNSKRKGSDVNVGEDEPADIGYAGLTDNLRISSLGNEVVIELRCAWREGILLEIMDVISDLNLDSHSVQSSTGDGLLCLTVNCKHKGTKIATTGMIQEALQRVAWIC
